Converted amounts (≈) assume the structure as drawn.
What was measured:
[1] = Lipophilicity, chromatographic hydrophobicity index of the compound in immobilized artificial membrane
[2] = Kinetic aqueous solubility of the compound by chemiluminescence nitrogen detection analysis; settings: buffer

N#Cc1ccc(S(=O)(=O)N2C[C@H](S(=O)(=O)c3ccc(Cl)cc3)[C@](O)(CN)C2)c(Cl)c1
CHI [1]: 49 | solubility kinetic [2]: 280 µM (≈ 137 µg/mL)
